Measurements: article doi:10.1101/2021.01.28.428596
No constants are given. Whether binding was seen depends on the method and setting. Binding can be weak; no strength is given. For some assays here: Where a sequence is shown, tags or fusion partners need not be part of it. For some assays here: In cells and extracts the contact can be indirect.

B1: endogenous REM1.3 (protein, UniProt O80837 1-190)
chain: MAEEQKTSKVDVESPAVLAPAKEPTPAPVEVADEKIHNPPPVESKALAVVEKPIEEHTPKKASSGSADRDVILADLEKEKKTSFIKAWEESEKSKAENRAQKKISDVHAWENSKKAAVEAQLRKIEEKLEKKKAQYGEKMKNKVAAIHKLAEEKRAMVEAKKGEELLKAEEMGAKYRATGVVPKATCGCF

Tests used:
[1] = biological target: T1, REMORIN-… RECEPTOR 1 (RIR1) cytoplasmic domain, yeast two-hybrid fusion (Arabidopsis thaliana) (UniProt C0LGG9); test: two-hybrid
T1 sequence: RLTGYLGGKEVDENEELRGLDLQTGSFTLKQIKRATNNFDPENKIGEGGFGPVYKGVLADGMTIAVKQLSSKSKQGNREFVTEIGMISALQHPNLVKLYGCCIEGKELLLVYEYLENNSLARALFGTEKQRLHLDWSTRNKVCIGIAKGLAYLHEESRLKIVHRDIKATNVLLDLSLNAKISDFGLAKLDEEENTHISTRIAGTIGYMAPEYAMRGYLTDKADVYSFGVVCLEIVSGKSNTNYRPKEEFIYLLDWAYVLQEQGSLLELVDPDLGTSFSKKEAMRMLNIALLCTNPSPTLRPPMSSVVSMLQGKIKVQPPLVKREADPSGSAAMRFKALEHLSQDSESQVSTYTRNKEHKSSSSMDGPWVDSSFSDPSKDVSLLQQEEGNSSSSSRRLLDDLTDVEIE

[2] = biological target: T2, RIR1-GFP (ProRIR1:RIR1-GFP in the rir1-1 mutant) (Arabidopsis thaliana) (UniProt C0LGG9); test: co-IP
T2 sequence: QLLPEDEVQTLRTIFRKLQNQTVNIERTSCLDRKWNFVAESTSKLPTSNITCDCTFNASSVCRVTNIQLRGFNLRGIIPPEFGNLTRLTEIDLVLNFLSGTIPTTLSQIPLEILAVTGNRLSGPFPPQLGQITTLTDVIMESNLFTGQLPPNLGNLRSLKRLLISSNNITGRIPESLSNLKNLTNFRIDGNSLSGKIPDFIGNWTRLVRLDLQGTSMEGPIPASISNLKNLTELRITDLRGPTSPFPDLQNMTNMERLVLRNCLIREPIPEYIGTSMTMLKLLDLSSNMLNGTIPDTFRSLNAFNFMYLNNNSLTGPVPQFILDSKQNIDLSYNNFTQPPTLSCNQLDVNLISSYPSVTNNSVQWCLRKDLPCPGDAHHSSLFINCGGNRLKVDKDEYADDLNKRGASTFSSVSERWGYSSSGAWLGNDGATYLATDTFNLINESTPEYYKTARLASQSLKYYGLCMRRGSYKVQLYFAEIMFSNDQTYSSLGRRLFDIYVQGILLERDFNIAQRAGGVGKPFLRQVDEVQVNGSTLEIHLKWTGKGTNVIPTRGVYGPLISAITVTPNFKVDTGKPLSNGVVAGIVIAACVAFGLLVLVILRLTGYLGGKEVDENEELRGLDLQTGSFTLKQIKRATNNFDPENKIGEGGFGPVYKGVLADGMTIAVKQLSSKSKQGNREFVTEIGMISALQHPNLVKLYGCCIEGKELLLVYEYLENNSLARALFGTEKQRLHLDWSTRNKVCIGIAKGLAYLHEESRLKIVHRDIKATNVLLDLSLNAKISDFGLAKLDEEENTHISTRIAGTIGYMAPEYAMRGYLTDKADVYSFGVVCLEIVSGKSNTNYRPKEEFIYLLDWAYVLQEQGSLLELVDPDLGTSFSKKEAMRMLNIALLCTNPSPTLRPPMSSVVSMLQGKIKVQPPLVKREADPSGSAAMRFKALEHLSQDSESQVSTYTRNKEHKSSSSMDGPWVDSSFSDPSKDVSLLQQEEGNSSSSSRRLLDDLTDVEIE

[3] = biological target: YFP-REM1.2 (ProREM1.2:YFP-REM1.2 in the rem1.2 mutant) (Arabidopsis thaliana); test: co-IP

| Molecule | binding [1] | also measured |
| --- | --- | --- |
| REM1.2^S11/S13/T18/T19A, yeast two-hybrid fusion (Arabidopsis thaliana) | no binding |  |
| REM1.2^T41/T46A, yeast two-hybrid fusion (Arabidopsis thaliana) | binds |  |
| REM1.2^T70A, yeast two-hybrid fusion (Arabidopsis thaliana) | binds |  |
| mCherry-REM1.2 (ProREM1.2-mCherry-REM1.2 in rir1-1/RIR1-GFP#3) (Arabidopsis thaliana) |  | binding [2]: binds |
| B1 |  | binding [3]: binds |
